From the odorant receptor screen of Mainland et al. (2015)
Several values for one entry are separate records, joined by “and”; a condition that tells them apart may be missing. Equal entries are not always repeated. This is one part of the list. Each value is one well over the wells without odorant, computed here; the data are noisy.

The compounds below were run on OR1N1 clone 1463 (assay: odorant receptor activation (CRE luciferase / Renilla) (fold of no-odor wells); higher = more activation). Settings: 100 µM.

Q: With CCCCCCCCC=O [nonyl aldehyde] as the compound, how does the odorant receptor activation read?
A: Its odorant receptor activation is 1.23.

Q: With CC12C=CCC1C1CCC3CC(=O)CCC3(C)C1CC2 (configuration not stated) [androstenone] as the compound, how does the odorant receptor activation read?
A: Its odorant receptor activation is 0.828.

Q: How did the odorant receptor activation turn out when CCCCCCCCOC(C)=O [octyl acetate] was run?
A: The odorant receptor activation was 1.08.

Q: Which odorant receptor activation does the source give for CCCCCC(C)=O [2-heptanone] here?
A: Its odorant receptor activation is 0.835 and 0.802.

Q: COc1ccccc1O [guaiacol] was tested. Which odorant receptor activation did it give?
A: Its odorant receptor activation is 1.16 and 0.982.

Q: CC(=O)OCC=C(C)CCC=C(C)C [geranyl acetate] was tested. Which odorant receptor activation did it give?
A: Its odorant receptor activation is 1.03 and 1.3.

Q: With C=CCc1ccc(OC)c(OC)c1 [eugenol methyl ether] as the compound, how does the odorant receptor activation read?
A: Its odorant receptor activation is 1.35.

Q: How did the odorant receptor activation turn out when CC(=O)OC1CC2CCC1(C)C2(C)C (configuration not stated) [isobornyl acetate] was run?
A: The odorant receptor activation was 1.01 and 1.22.

Q: For O=C1CCCCCCCCCCCC(=O)OCCO1 [ethylene brassylate], which odorant receptor activation is on record?
A: Its odorant receptor activation is 1.75.

Q: With O=C1CCCCC1 [Cyclohexanone] as the compound, how does the odorant receptor activation read?
A: Its odorant receptor activation is 0.612 and 1.07.

Q: With CC(C)(C)c1ccc(CCC=O)cc1 [bourgeonal] as the compound, how does the odorant receptor activation read?
A: The odorant receptor activation was 1.11.

Q: Which odorant receptor activation does the source give for CCC1(O)C2(C)CCC(C2)C1(C)C (configuration not stated) [2-ethylfenchol] here?
A: The odorant receptor activation was 1.25.

Q: Which odorant receptor activation does the source give for COC(=O)c1ccccc1 [methyl benzoate] here?
A: The odorant receptor activation was 0.767 and 1.12.

Q: CC12CCC(CC1)C(C)(C)O2 [cineole] was tested. Which odorant receptor activation did it give?
A: Its odorant receptor activation is 0.97.

Q: Which odorant receptor activation does the source give for CC1=NC(C)SC1C (configuration not stated) here?
A: Its odorant receptor activation is 0.951 and 0.916.

Q: CC=Cc1ccc(O)c(OC)c1 [isoeugenol] was tested. Which odorant receptor activation did it give?
A: Its odorant receptor activation is 1.08 and 2.28.

Q: CCCCCOC(C)=O [n-amyl acetate] was tested. Which odorant receptor activation did it give?
A: The odorant receptor activation was 0.617 and 1.03.

Q: How did the odorant receptor activation turn out when c1cnccn1 [pyrazine] was run?
A: Its odorant receptor activation is 0.901.

Q: Which odorant receptor activation does the source give for C=C(C)C1CC=C(C)C(=O)C1 (configuration not stated) [r-carvone] here?
A: Its odorant receptor activation is 0.795.

Q: C=CC(C)(O)CCC=C(C)C (configuration not stated) [linalool] was tested. Which odorant receptor activation did it give?
A: The odorant receptor activation was 1.16.

Q: For CC(C)=CCCC(C)=CC=O [citral], which odorant receptor activation is on record?
A: Its odorant receptor activation is 1.24.

Q: How did the odorant receptor activation turn out when CC(=O)c1ccccc1 [acetophenone] was run?
A: The odorant receptor activation was 0.995 and 0.722.

Q: Which odorant receptor activation does the source give for CCCCCC(=O)O [caproic acid] here?
A: Its odorant receptor activation is 1.03.

Q: With CCCCCCOC(=O)CCC [hexyl butyrate] as the compound, how does the odorant receptor activation read?
A: The odorant receptor activation was 1.11 and 0.861.

Q: Which odorant receptor activation does the source give for CC1CCC(C(C)C)C(O)C1 (single isomer, unassigned; (+)) [(+)-menthol] here?
A: Its odorant receptor activation is 1.16.

Q: With CC(C)CCC(=O)O [4-methylvaleric acid] as the compound, how does the odorant receptor activation read?
A: The odorant receptor activation was 0.812.

Q: How did the odorant receptor activation turn out when CC12C=CCC1C1CCC3=CC(=O)CCC3(C)C1CC2 (configuration not stated) [androstadienone] was run?
A: Its odorant receptor activation is 1.01 and 1.29.
